Measurements: the supplement of paper PMC7661543
± gives the standard deviation of the averaged measurements. The effect of the compound repeats well; differences between the knockouts mostly do not.

System: ZR-75-1
Assay: relative cell number vs DMSO control (72 h) (% of DMSO); higher = less growth inhibition (more cells)
Experimental: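 QMAP-Seq: a pool of 5 breast cancer cell lines (ZR-75-1, SKBR3, HCC-38, MDA-MB-231, BT-20), each carrying 12 doxycycline-inducible Cas9 sgRNA perturbations (11 knockouts plus non-targeting sgNT), was treated with compounds for 72 h at four 10-fold doses (10 nM-10 uM or 1 nM-1 uM range). Barcodes were amplified and sequenced, and cell number was interpolated from 293T spike-in standard curves. The result is expressed as % of the median of DMSO wells. Two biological replicates.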

[1] = sgRNA knockout: sgATF3, 1000 nM
[2] = sgRNA knockout: sgATF3, 10000 nM
[3] = sgRNA knockout: sgATF4, 1000 nM
[4] = sgRNA knockout: sgATF4, 10000 nM
[5] = sgRNA knockout: sgATF6, 1000 nM
[6] = sgRNA knockout: sgATF6, 10000 nM
[7] = sgRNA knockout: sgATG7, 1000 nM
[8] = sgRNA knockout: sgATG7, 10000 nM
[9] = sgRNA knockout: sgERN1, 1000 nM
[10] = sgRNA knockout: sgERN1, 10000 nM
[11] = sgRNA knockout: sgHSF2, 1000 nM
[12] = sgRNA knockout: sgHSF2, 10000 nM
[13] = sgRNA knockout: sgNFE2L2, 10 nM
[14] = sgRNA knockout: sgNFE2L2, 100 nM
[15] = sgRNA knockout: sgNFE2L2, 1000 nM
[16] = sgRNA knockout: sgNFE2L2, 10000 nM
[17] = sgRNA knockout: sgSLC35F2, 10 nM
[18] = sgRNA knockout: sgSLC35F2, 100 nM
[19] = sgRNA knockout: sgSLC35F2, 1000 nM
[20] = sgRNA knockout: sgSLC35F2, 10000 nM
[21] = sgRNA knockout: sgXBP1, 1000 nM
[22] = sgRNA knockout: sgXBP1, 10000 nM

SMILES | relative cell number (sgRNA knockout: sgATF3, 10 nM) | relative cell number (sgRNA knockout: sgATF3, 100 nM) | relative cell number [1] | relative cell number [2] | relative cell number (sgRNA knockout: sgATF4, 10 nM) | relative cell number (sgRNA knockout: sgATF4, 100 nM) | relative cell number [3] | relative cell number [4] | relative cell number (sgRNA knockout: sgATF6, 10 nM) | relative cell number (sgRNA knockout: sgATF6, 100 nM) | relative cell number [5] | relative cell number [6] | relative cell number (sgRNA knockout: sgATG7, 10 nM) | relative cell number (sgRNA knockout: sgATG7, 100 nM) | relative cell number [7] | relative cell number [8] | relative cell number (sgRNA knockout: sgERN1, 10 nM) | relative cell number (sgRNA knockout: sgERN1, 100 nM) | relative cell number [9] | relative cell number [10] | relative cell number (sgRNA knockout: sgHSF2, 10 nM) | relative cell number (sgRNA knockout: sgHSF2, 100 nM) | relative cell number [11] | relative cell number [12] | relative cell number [13] | relative cell number [14] | relative cell number [15] | relative cell number [16] | relative cell number [17] | relative cell number [18] | relative cell number [19] | relative cell number [20] | relative cell number (sgRNA knockout: sgXBP1, 10 nM) | relative cell number (sgRNA knockout: sgXBP1, 100 nM) | relative cell number [21] | relative cell number [22]
NC(=O)Nc1sc(-c2ccc(F)cc2)cc1C(N)=O [TPCA1] | 125 ± 2.6 | 121 ± 6.1 | 95.9 ± 9.1 | 39.7 ± 2.5 | 110 ± 18 | 116 ± 3.7 | 119 ± 14 | 61.67 ± 0.54 | 129 ± 34 | 95.5 ± 11 | 110 ± 18 | 40 ± 1.5 | 111 ± 44 | 111 ± 3.9 | 123 ± 16 | 41.7 ± 10 | 110 ± 15 | 106 ± 5.5 | 89.5 ± 11 | 50.5 ± 9.2 | 108 ± 6.4 | 98 ± 28 | 113 ± 13 | 44.9 ± 8.2 | 115 ± 43 | 108 ± 24 | 115 ± 3.6 | 32.5 ± 14 | 103 ± 66 | 177 ± 11 | 117 ± 26 | 50.8 ± 15 | 95.5 ± 22 | 103 ± 8.7 | 95.5 ± 4.9 | 47.1 ± 8.3
Cn1nnc2c(C(N)=O)ncn2c1=O [Temozolomide] | 120 ± 28 | 94.2 ± 4.2 | 111 ± 33 | 88 ± 61 | 136 ± 2.8 | 107 ± 4.2 | 148 ± 3.4 | 116 ± 36 | 113 ± 29 | 87.1 ± 28 | 79.8 ± 35 | 94.8 ± 60 | 81.5 ± 20 | 82 ± 21 | 86.8 ± 37 | 99.4 ± 45 | 102 ± 17 | 80.9 ± 5.5 | 108 ± 33 | 112 ± 62 | 92.6 ± 4 | 90.3 ± 6.4 | 108 ± 6.4 | 82.4 ± 31 | 116 ± 6.6 | 106 ± 15 | 115 ± 27 | 105 ± 36 | 103 ± 36 | 136 ± 33 | 128 ± 42 | 152 ± 59 | 105 ± 1.2 | 84.8 ± 16 | 115 ± 23 | 96 ± 42
O=C1CCC(N2C(=O)c3ccccc3C2=O)C(=O)N1 (stereo not drawn) [Thalidomide] | 102 ± 15 | 86.8 ± 27 | 87.7 ± 56 | 102 ± 17 | 137 ± 31 | 82.4 ± 32 | 129 ± 21 | 110 ± 41 | 95.7 ± 9.5 | 69.4 ± 17 | 115 ± 41 | 66.8 ± 22 | 79 ± 42 | 77.9 ± 5.8 | 104 ± 36 | 94.8 ± 7.5 | 109 ± 47 | 78.9 ± 2.1 | 86.4 ± 6.8 | 99.3 ± 13 | 90.9 ± 23 | 83.8 ± 30 | 104 ± 54 | 122 ± 50 | 115 ± 2.7 | 88.3 ± 15 | 142 ± 43 | 103 ± 17 | 112 ± 49 | 74.3 ± 11 | 139 ± 31 | 116 ± 35 | 98.1 ± 7.6 | 72.8 ± 2.7 | 105 ± 15 | 105 ± 24
